Measured values from patent publication US10450346B2, “Immunotherapy against several tumors of the blood, in particular chronic lymphoid leukemia (CLL)” (Immatics biotechnologies GmbH, priority 2014, dated 2019).

B1: cytoskeleton-associated protein 4 (protein, UniProt Q07065 1-602, looked up)
Cytoskeleton-associated …: MPSAKQRGSKGGHGAASPSEKGAHPSGGADDVAKKPPPAPQQPPPPPAPHPQQHPQQHPQNQAHGKGGHRGGGGGGGKSSSSSSASAAAAAAAASSSASCSRRLGRALNFLFYLALVAAAAFSGWCVHHVLEEVQQVRRSHQDFSRQREELGQGLQGVEQKVQSLQATFGTFESILRSSQHKQDLTEKAVKQGESEVSRISEVLQKLQNEILKDLSDGIHVVKDARERDFTSLENTVEERLTELTKSINDNIAIFTEVQKRSQKEINDMKAKVASLEESEGNKQDLKALKEAVKEIQTSAKSREWDMEALRSTLQTMESDIYTEVRELVSLKQEQQAFKEAADTERLALQALTEKLLRSEESVSRLPEEIRRLEEELRQLKSDSHGPKEDGGFRHSEAFEALQQKSQGLDSRLQHVEDGVLSMQVASARQTESLESLLSKSQEHEQRLAALQGRLEGLGSSEADQDGLASTVRSLGETQLVLYGDVEELKRSVGELPSTVESLQKVQEQVHTLLSQDQAQAARLPPQDFLDRLSSLDNLKASVSQVEADLKMLRTAVDSLVAYSVKIETNENNLESAKGLLDDLRNDLDRLFVKVEKIHEKV
notes: LiTAA source protein
B2: transmembrane emp24 protein transport domain containing 4 (protein, UniProt Q7Z7H5 30-227, looked up)
Transmembrane emp24 …: LYFHIGETEKRCFIEEIPDETMVIGNYRTQMWDKQKEVFLPSTPGLGMHVEVKDPDGKVVLSRQYGSEGRFTFTSHTPGDHQICLHSNSTRMALFAGGKLRVHLDIQVGEHANNYPEIAAKDKLTELQLRARQLLDQVEQIQKEQDYQRYREERFRLTSESTNQRVLWWSIAQTVILILTGIWQMRHLKSFFEAKKLV
notes: LiTAA source protein
B3: cordon-bleu WH2 repeat protein-like 1 (protein, UniProt Q53SF7 1-1128, looked up)
Cordon-bleu protein-like 1: MDGRTPRPQDAPARRKPKAKAPLPPAETKYTDVSSAADSVESTAFIMEQKENMIDKDVELSVVLPGDIIKSTTVHGSKPMMDLLIFLCAQYHLNPSSYTIDLLSAEQNHIKFKPNTPIGMLEVEKVILKPKMLDKKKPTPIIPEKTVRVVINFKKTQKTIVRVSPHASLQELAPIICSKCEFDPLHTLLLKDYQSQEPLDLTKSLNDLGLRELYAMDVNRESCQISQNLDIMKEKENKGFFSFFQRSKKKRDQTASAPATPLVNKHRPTFTRSNTISKPYISNTLPSDAPKKRRAPLPPMPASQSVPQDLAHIQERPASCIVKSMSVDETDKSPCEAGRVRAGSLQLSSMSAGNSSLRRTKRKAPSPPSKIPPHQSDENSRVTALQPVDGVPPDSASEANSPEELSSPAGISSDYSLEEIDEKEELSEVPKVEAENISPKSQDIPFVSTDIINTLKNDPDSALGNGSGEFSQNSMEEKQETKSTDGQEPHSVVYDTSNGKKVVDSIRNLKSLGPNQENVVQNEIIVYPENTEDNMKNGVKKTEINVEGVAKNNNIDMEVERPSNSEAHETDTAISYKENHLAASSVPDQKLNQPSAEKTKDAAIQTTPSCNSFDGKHQDHNLSDSKVEECVQTSNNNISTQHSCLSSQDSVNTSREFRSQGTLIIHSEDPLTVKDPICAHGNDDLLPPVDRIDKNSTASYLKNYPLYRQDYNPKPKPSNEITREYIPKIGMTTYKIVPPKSLEISKDWQSETIEYKDDQDMHALGKKHTHENVKETAIQTEDSAISESPEEPLPNLKPKPNLRTEHQVPSSVSSPDDAMVSPLKPAPKMTRDTGTAPFAPNLEEINNILESKFKSRASNAQAKPSSFFLQMQKRVSGHYVTSAAAKSVHAAPNPAPKELTNKEAERDMLPSPEQTLSPLSKMPHSVPQPLVEKTDDDVIGQAPAEASPPPIAPKPVTIPASQVSTQNLKTLKTFGAPRPYSSSGPSPFALAVVKRSQSFSKERTESPSASALVQPPANTEEGKTHSVNKFVDIPQLGVSDKENNSAHNEQNSQIPTPTDGPSFTVMRQSSLTFQSSDPEQMRQSLLTAIRSGEAAAKLKRVTIPSNTISVNGRSRLSHSMSPDAQDGH
notes: LiTAA source protein

Each molecule was assayed on primary CLL samples (PBMC from CLL patients), HLA class I ligands (assay: HLA class I ligandome analysis by LC-MS/MS (frequency of HLA restricted presentation)). Conditions: CLL patient HLA class I ligandomes (n = 30).
Design: species or system human

| Molecule | Number of positive CLLs |
| --- | --- |
| B1 | 6 |
| B2 | 6 |
| B3 | 6 |

Same assay, conditions: source protein (LiTAA) representation in CLL patient HLA class I ligandomes (n = 30)

| Molecule | Number of positive CLLs (frequency [%]) |
| --- | --- |
| B1 | 20.0% |
| B2 | 20.0% |
| B3 | 20.0% |
